Experimental data taken from PubChem BioAssay AID1347075 (National Center for Advancing Translational Sciences (NCATS), 2019).
The campaign covered roughly 400,000 compounds. About 5,500 (1.4%) were called active. Inconclusive results, whose numbers are uncertain, are shown with a selection of clear calls. Calls follow the shape of the dose curve; as a rule, active = well fitted cell-killing curve with a large enough effect; inconclusive = small, poorly fitted or top-dose-only effect, or effect the other way; inactive = flat fitted curve, though single readings scatter. Potencies of inconclusive entries are doubtful fits and often do not repeat.

Test: qHTS assay for MDR1-selective chemotherapeutics: Primary screen using the parental adenocarcinoma cell KB-3-1; also: nearly all actives have a fitted effect of over 60% in size
Conditions: KB-3-1 viability, CellTiter-Glo ATP luminescence, 72 h; activity change, negative = cytotoxic: at 46.1 µM (top of the series)
In short: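 72 h, 37 °C compound treatment of KB-3-1 parental cells; CellTiter-Glo added, 10 min, luminescence read. Data corrected against DMSO-only plates and normalized before curve fitting.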
% is scaled to controls: 0 for no effect and ±100 for the full control effect; potency is read from the fitted curve at half-maximal effect.

Compound	Potency	activity change, negative = cytotoxic
O=c1cc(O)c2sc(Nc3ccc(F)c(Cl)c3)nc2[nH]1	active: 20.6 µM	
CC1=C(C(=O)OC2CCCCCC2)C(c2cccc(Cl)c2)CC(=O)N1 (configuration not stated)	inconclusive: 7.31 µM [cytotoxic, partial curve]	
O=C(Nc1cccc(Cl)c1)c1ccc(F)c(S(=O)(=O)N2CCN(c3ccccn3)CC2)c1	inconclusive: 29.1 µM [cytotoxic, single point]	
Cc1ccc([C@H]2C[C@@H](O)[C@H](n3cc(COC(=O)c4ccccc4)nn3)CN2CC2CCCCC2)cc1	inconclusive: 32.6 µM [cytotoxic, single point]	
Cc1ccc2c(=O)c(C(=O)c3cccc(Cl)c3)cn(CC(=O)Nc3ccccc3C(F)(F)F)c2n1		inactive: -6.18%
O=C(CSc1nnc(-c2ccccc2)c(-c2ccccc2)n1)NC1CCS(=O)(=O)C1 (configuration not stated)		inactive: -8.03%
Cc1cc(C)n(-c2nc(NCCCN(C)C)c3c4c(sc3n2)COC(C)(C)C4)n1		inactive: -1.66%
O=C(NC(=S)Nc1ncc(Br)cc1Br)c1cncc(Br)c1	inconclusive: 29.1 µM [cytotoxic, single point]	
CCCOc1ccc(C2C(C(=O)OC)=CN(CCOC)C=C2C(=O)OC)cc1		inactive: 2.72%
O=C(CCl)Nc1ccc2c(c1)OCO2	active: 14.6 µM	
COc1cccc(Cn2c3ccc(NC(=O)CCc4ccc(F)cc4)cc3c(=O)n2C)c1	active: 4.11 µM	
CC(C)(C)C1CCC2(CC1)C(C#N)=C(SCC(=O)Nc1ccccc1)NC(=O)C2C#N (configuration not stated)	inconclusive: 29.1 µM [cytotoxic, single point]	
O=C(CCc1ccc(O)cc1)NN=Cc1ccc2c(c1)OCO2	inconclusive: 13 µM [cytotoxic, single point]	
Cc1nc(-c2ccc(NC(=O)c3ccccc3)cc2)cs1	inconclusive: 25.9 µM [cytotoxic, single point]	
Cc1nnc2n(Cc3ccccc3)c(=O)c3c4c(sc3n12)COC(C(C)C)C4 (configuration not stated)	inconclusive: 29.1 µM [cytotoxic, single point]	
CC1=Nc2cc(C(=O)NCCc3ccc(Cl)cc3)ccc2Sc2c(C)ccc(C)c21	active: 2.59 µM	
Cc1cc(C)nc(N2CCCC(CCC(=O)NCc3ccc(F)c(F)c3)C2)n1 (configuration not stated)		inactive: -8.56%
CC(C)OC(=O)/C=C1\C[C@@H](c2ccccc2C(F)(F)F)O[C@@H](c2ccccc2C(F)(F)F)O1	inconclusive: 16.4 µM [cytotoxic, single point]	
O=C(c1ccc2nsnc2c1)N1CCN(c2ccc([N+](=O)[O-])cc2)CC1	inconclusive: 11.6 µM [cytotoxic, partial curve, poor fit]	
O=C(CSc1nc(-c2ccc(F)cc2)cc(C(F)(F)F)n1)NCc1ccco1	inconclusive: 16.4 µM [cytotoxic, single point]	
CCCCCCCC(=O)N/N=C(\C)c1ccc(O)cc1O	inconclusive: 14.6 µM [cytotoxic, single point]	
CCOC(=O)N1CCN(C(=S)Nc2cc(S(=O)(=O)N3CCOCC3)ccc2Cl)CC1	inconclusive: 5.17 µM [cytotoxic, partial curve, poor fit]	
O=C(CSc1nc2ccccc2c(=O)n1CC1CCCO1)Nc1ccc(F)cc1 (configuration not stated)	inconclusive: 29.1 µM [rising, single point]	

Reprinted at random: three records from the list
Compound	Potency	activity change, negative = cytotoxic
O=C(c1ccc2nsnc2c1)N1CCN(c2ccc([N+](=O)[O-])cc2)CC1	inconclusive: 11.6 µM [cytotoxic, partial curve, poor fit]	
O=C(Nc1cccc(Cl)c1)c1ccc(F)c(S(=O)(=O)N2CCN(c3ccccn3)CC2)c1	inconclusive: 29.1 µM [cytotoxic, single point]	
CCCOc1ccc(C2C(C(=O)OC)=CN(CCOC)C=C2C(=O)OC)cc1		inactive: 2.72%

(listing goes on)

Compound	Potency	activity change, negative = cytotoxic
CC(=O)c1cccc(NC(=O)CC2CCCC2)c1	inconclusive: 11.6 µM [rising, partial curve, poor fit]	
CC1CCCN(c2nc3c(c(=O)n(C)c(=O)n3C)n2CCSc2nc3ccccc3s2)C1 (configuration not stated)	inconclusive: 20.6 µM [cytotoxic, single point]	
O=C(CN(Cc1cccs1)C(=O)CSc1nnc(COc2ccccc2)o1)NC1CCCCC1		inactive: -18.1%
CN(Cc1ccc(OC(F)F)cc1)C(=O)c1ccc(S(=O)(=O)N(C)c2ccccc2)cc1	inconclusive: 23.1 µM [cytotoxic, single point]	
Cc1oc2cc([N+](=O)[O-])c(O)c([N+](=O)[O-])c2c1C(=O)c1ccc(Br)cc1	inconclusive: 14.6 µM [cytotoxic, single point]	
Cc1nc2c3ccccc3nc(NNC(=O)CCC(=O)N3CCN(c4cccc(C(F)(F)F)c4)CC3)n2n1	inconclusive: 29.1 µM [cytotoxic, single point]	
Cc1ccccc1C(=O)Nc1sc2c(c1C(=O)O)CCC2	inconclusive: 23.1 µM [cytotoxic, single point]	
CCCCNc1nc2c(c(=O)n(C)c(=O)n2C)n1CCC		inactive: 0.809%
COc1ccc(C(C)=O)cc1Cn1c(C)c(C(=O)NCc2cccc(C(F)(F)F)c2)sc1=O	inconclusive: 23.1 µM [cytotoxic, partial curve, poor fit]	
O=C(c1ccc2nc[nH]c2c1)N1CCN(c2ncc(C(F)(F)F)cc2Cl)CC1	inconclusive: 29.1 µM [cytotoxic, single point]	
CCCc1cc(=O)[nH]c(SCC(=O)Nc2cc(S(=O)(=O)N3CCCCC3)ccc2Cl)n1	active: 8.2 µM	
Oc1ccc(/C=N/Nc2nc(-c3ccccc3F)nc3ccccc23)c(O)c1	inconclusive: 16.4 µM [cytotoxic, single point]	
c1ccc(Cc2nnc3sc(-c4ccccn4)nn23)cc1	inconclusive: 16.4 µM [rising, single point]	
O=[N+]([O-])c1ccc(N/N=C/c2cccc(O)c2O)cc1	inconclusive: 1.84 µM [cytotoxic, full curve, poor fit]	
c1ccc(N=c2nc(-c3ccccc3)n(-c3ccccc3)s2)cc1	inconclusive: 32.6 µM [cytotoxic, partial curve, poor fit]	
COc1ccc(/C=N/NC(=O)c2c(Br)cnn2C)c2ccccc12		inactive: 13.8%
O=C(Oc1c(-c2ccccc2)c(=O)n2c3c(cccc13)CC2)c1ccccc1	inconclusive: 25.9 µM [rising, single point]	
Cn1c(N)c(C(=O)COC(=O)CNC(=O)c2ccccc2)c(=O)n(C)c1=O	inconclusive: 8.2 µM [rising, partial curve]	
O=C1/C(=C/c2ccc(N3CCOCC3)o2)SC(=Nc2ccccc2)N1CCc1c[nH]c2ccccc12	inconclusive: 18.4 µM [cytotoxic, single point]	
Cc1ccccc1OCC(=O)NCC(C)NC(=O)COc1ccccc1C (configuration not stated)		inactive: 11.9%
Cc1ccc(-c2cc(C(F)F)nc(S(C)(=O)=O)n2)cc1	inconclusive: 18.4 µM [cytotoxic, single point]	
CCN(CC(=O)NC1CCS(=O)(=O)C1)S(=O)(=O)c1ccc(Br)cc1 (configuration not stated)		inactive: -1.47%
COc1cc(/C=C2\NC(=O)NC2=O)cc(Br)c1OC	inconclusive: 29.1 µM [cytotoxic, single point]	

Compound	Potency	activity change, negative = cytotoxic
Cc1ccc(C(=O)N/C(=C\c2cccs2)C(=O)NCCCN2CCOCC2)cc1		inactive: -8.42%
CCOc1ccc(-c2ncncc2-c2ccc(OC)c(OC)c2)c(O)c1		inactive: 18.3%
COc1ccc(-n2nnnc2SCC(=O)Nc2ccc3c(c2)OCCO3)cc1OC	inconclusive: 29.1 µM [cytotoxic, single point]	
COc1cc(OC)c(/C=N/NC(=O)c2ccc(NC(C)=O)cc2)cc1Br		inactive: -0.0142%
CS(=O)(=O)Nc1cccc(C2=NN(C(=O)c3ccccc3Cl)C(c3ccccc3O)C2)c1 (configuration not stated)		inactive: -0.181%
O=C(CN1CCN(S(=O)(=O)c2ccc(Br)s2)CC1)NCC1CCCCC1		inactive: -14.3%
Cc1cc(N=Cc2c(O)n(-c3cccc(Cl)c3)c(=O)c3ccccc23)no1		inactive: -10.9%
COc1cc(OC)c(N2CC(C(=O)Nc3cc(Cl)ccc3N3CCOCC3)CC2=O)cc1Cl (configuration not stated)	active: 5.8 µM	
COc1ccc2oc(-c3ccccc3[N+](=O)[O-])cc(=O)c2c1	inconclusive: 29.1 µM [cytotoxic, single point]	
CS(=O)(=O)Nc1ccc(C2=NN(S(=O)(=O)c3ccccc3)C(c3cccs3)C2)cc1 (configuration not stated)	inconclusive: 29.1 µM [cytotoxic, single point]	
O=S(=O)(Nc1cccc(-c2ccc(N3CCCC3)nn2)c1)c1ccc(F)c(C(F)(F)F)c1		inactive: -8.99%
CCc1cc2cc(C)cc(C)c2nc1SCC(=O)N1CCN(C(=O)c2ccco2)CC1	inconclusive: 29.1 µM [cytotoxic, single point]	
COC(=O)[C@@H]1[C@H]2SC(C)(C)[C@H](C(=O)OC)N2C(=O)N1Cc1cc2ccccc2n1S(=O)(=O)c1ccccc1		inactive: 8.98%
CCN(CC)S(=O)(=O)c1cccc(C(=O)Nc2nc3cc4c(cc3s2)OCCO4)c1	inconclusive: 23.1 µM [cytotoxic, partial curve]	
O=C(CNS(=O)(=O)c1ccc2c(c1)OCCCO2)N1CCN(Cc2ccccc2)CC1	inconclusive: 5.17 µM [cytotoxic, full curve, poor fit]	
CSc1nnc(Cc2sc(-c3ccccc3)nc2-c2ccccc2)o1	inconclusive: 14.6 µM [cytotoxic, partial curve, poor fit]	
CC1(C)CC(=O)CC(C2(O)C(=O)N(Cc3ccccc3)c3ccccc32)O1 (configuration not stated)	inconclusive: 29.1 µM [cytotoxic, single point]	
Cc1[nH]c(=S)[nH]c(=O)c1CCOc1ccccc1	inconclusive: 25.9 µM [cytotoxic, single point]	
CCOc1ccc(CN(C)C(=O)CCc2ccc(S(=O)(=O)N3CCCCCC3)cc2)cc1	inconclusive: 29.1 µM [cytotoxic, single point]	
CC1CCN(C(=O)C2CCN(S(=O)(=O)c3cc(Cl)ccc3Cl)CC2)CC1		inactive: -1.51%
O=C(C1CC(=O)N(C2CCCCC2)C1)N1CCN(c2cccc(C(F)(F)F)c2)CC1 (configuration not stated)	inconclusive: 14.6 µM [cytotoxic, partial curve]	
